According to patent publication US20150150787A1, “COMPOSITIONS, METHODS & SYSTEMS FOR RESPIRATORY DELIVERY OF THREE OR MORE ACTIVE AGENTS” (Pearl Therapeutics, Inc., priority 2013, published 2015):

Assay: Aerosol performance by Next Generation Impactor, BD/GP/FF cosuspension MDIs (Example 2)
Format: physicochemical
Details: NGI 30 LPM, versus mono/dual cosuspensions or other strengths
Protocol: For MDI manufacturing, a drug addition vessel (DAV) was prepared for suspension filling in the following manner. All powders were weighed into a drug addition vessel (DAV) within a nitrogen purged glove box that is controlled to <5% RH, by first adding half of the SP quantity, next filling the microcrystalline active agent material(s), and lastly adding the remaining half of the SP to the top. The DAV was sealed, removed from the glove box, and connected to the suspension vessel. The powders were rinsed into the vessel with HFA. The suspension was stirred and recirculated for no less than 60 minutes before MDI filling commenced. Product was formulated to a target fill weight of 10.8±0.5 g/canister. The temperature inside the suspension vessel was maintained at 15-17° C. throughout batch production. After recirculation for 30 min the cosuspension compositions were filled into 14 mL fluorinated ethylene polymer (FEP) coated aluminum canisters (Presspart, Blackburn, UK) through commercially available metering valves (Bespak, King's Lynn, UK). Sample canisters were then selected from each batch fill for total canister analysis to ensure that formulation targets were met.
The aerosol performance of each of the triple cosuspension compositions was evaluated and compared to the aerosol performance provided by the GFF, BFF, and BD Mono cosuspensions. […]

For `C[N+]1(C)CCC(OC(=O)C(O)(c2ccccc2)C2CCCC2)C1` (stereo not shown) [GP, (3-[(cyclopentylhydroxyphenylacetyl)oxy]-1,1-dimethyl-, bromide)], which “Coformulation effect (aerosol performance) when formulated in the triple cosuspensions” value is on record?
Its value is “no coformulation effect was observed”.
